Literature values in patent US20180050107A1, “NEUROSTEROID COMPOSITIONS AND METHODS OF USE THEREOF” (Janssen Pharmaceutica NV, priority 2016, published 2018).
Some entries share one result that the patent states for a list of compounds. At least one structure is not confirmed: it was looked up by name or label, or the drawing left a doubt.

Tested on: HPA axis function
Conditions: rat, 0.6 mg/kg

## O=c1c(O[C@@H]2O[C@H](CO)[C@H](O)[C@H](O)[C@H]2O)c(-c2ccc(O)c(O)c2)oc2cc(O)cc(O)c12 [hyperoside]
  reduction of plasma levels of ACTH and cortisol: 40-70%
